Screen size: about 320,000 compounds; about 2,100 (0.66%) were called active. Inconclusive means that the source gave no clear call. Such entries were picked first, then a sample of the others. Calls come from the whole dose curve; as a rule, active = well fitted inhibition curve with a large enough effect in the signal ratio, with a control signal flat (not every such curve was filed as active); inconclusive = small, poorly fitted or top-dose-only effect, or effect the other way, or a change in a side signal; inactive = flat fitted curve, though single readings scatter; the % refers to the signal ratio. A potency beside an inconclusive call is a rough fit, not a confirmed value.
assay: qHTS Assay for Lipid Storage Modulators in Drosophila S3 Cells; conditions: BODIPY lipid droplet fluorescence, 18-24 h, cells fed with added oleic acid; lipid storage change, negative = inhibition: at 46.1 µM (top of the series) unless noted
How it was run: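 Drosophila S3 cells loaded with oleic acid (400 uM, as added) and compounds at several concentrations; lipid droplets imaged by 488-nm laser-scanning cytometry, 500–530 nm intensity and object ratio to cell channel. Percent activity normalized to 20 uM Triacsin C.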
% is set by controls: 0 for no effect and ±100 for the full control effect; potency is the fitted concentration of half-maximal effect.

| SMILES | lipid storage change, negative = inhibition | Potency |
| --- | --- | --- |
| Cc1ccc(C(=O)N/N=C\c2sccc2C)cn1 | inconclusive: 24.5% | – |
| COC(=O)c1ccc(C(=O)OC)c(NC(=S)N2CCCC(C)C2)c1 (stereo not drawn) | – | inconclusive: 4.11 µM [activator, partial curve] |
| Cc1cccc(C(=O)Oc2ccccc2/C=N/Nc2ccc([N+](=O)[O-])cc2)c1 | inconclusive: -10.8% | – |
| CCOC(=O)c1cnn(-c2nc(-c3ccc(F)cc3)cs2)c1C(F)(F)F | inconclusive: 25.7% | – |
| Cc1ccccc1N1CC(C(=O)N2CC(C)OC(C)C2)CC1=O (stereo not drawn) | inconclusive: 8.57% | – |
| Cn1nc(C(F)(F)F)c(/C=N/OCc2c(Cl)cccc2Cl)c1Cl | inconclusive: 26.6% | – |
| COc1ccc2c(c1)cc(C(=O)N[C@@H](CCSC)C(=O)N1CCC[C@H]1C(=O)O)n2C | inconclusive: -1.9% | – |
| O=C1c2nc3cc(-c4ccccc4)[nH]n3c(=O)c2CN1Cc1ccccc1 | inconclusive: -12% | – |
| Cc1cccc(NC(=O)c2cc(N3C(=O)CCC3=O)ccc2Cl)n1 | inconclusive: 21.3% | – |
| COc1cccc(NC(=O)CCN2C(=O)c3ccccc3Sc3ncccc32)c1 | – | inconclusive: 29.1 µM [activator, partial curve, poor fit] |
| O=[N+]([O-])c1cccc(/C=C/c2ccccn2)c1 | inconclusive: 11.2% | – |
| COc1ccccc1N1CCN(C2CCCN(C(=O)CCc3ccccn3)C2)CC1 (stereo not drawn) | – | inconclusive: 29.1 µM [falling, single point] |
| O=C(O)C1Cc2ccccc2CN1S(=O)(=O)c1ccc2ccccc2c1 (stereo not drawn) | – | inconclusive: 0.0052 µM [falling, full curve, poor fit] |
| O=C(CCc1nc(-c2ccccc2)no1)NC1CCCCCC1 | inconclusive: 4.53% | – |
| CCCCCn1c(N2CCCC2)nc2c1c(=O)n(C)c(=O)n2C | – | inconclusive: 0.731 µM [activator, full curve] |
| Cc1nc2c(sc(=S)n2Cc2ccco2)c(=O)n1CC(=O)Nc1ccc(F)cc1 | – | active: 16.4 µM |
| Cc1nc2cc(NS(=O)(=O)c3cccc4cccnc34)ccc2s1 | – | inconclusive: 16.4 µM [falling, single point] |
| CC1(NC(=O)CCc2ccccc2)CCN(CCCc2ccccc2)C1=O (stereo not drawn) | – | inconclusive: 1.16 µM [activator, single point] |
| O=C(NCC(c1ccco1)N1CCc2ccccc2C1)c1ccccc1Br (stereo not drawn) | inconclusive: 8.22% | – |
| Cc1ccnc(NS(=O)(=O)c2ccc(NC(=O)Cc3ccc(F)cc3)cc2)n1 | inconclusive: -14.1% | – |
| O=C(CN1CCN(S(=O)(=O)c2ccc(Cl)cc2)CC1)Nc1ccc2c(c1)CCC2 | inconclusive: 17.2% | – |
| Cc1ccc(-n2c(Cc3cccc4ccccc34)n[nH]c2=S)c(C)c1 | inconclusive: 4.88% | – |
| CC(=O)N/C(=C\c1ccccc1)C(=O)OCC(=O)N(C)C1CCCCC1 | inactive | – |
| NS(=O)(=O)c1cccc(NC(=O)/C=C/c2cccs2)c1 | inconclusive: -46.9% [cytotoxic] [at 0.369 µM] | – |
| CCc1cc(C(=O)Nc2cc(S(=O)(=O)N(CC)CC)ccc2N2CCN(C)CC2)sc1C | inconclusive: 23.3% | – |

| SMILES | lipid storage change, negative = inhibition | Potency |
| --- | --- | --- |
| C/C(=N\NC(=O)Cc1cccn1C)c1cccs1 | inconclusive: 7.37% | – |
| CC(C)(C)c1ccc(C(=O)CSc2ncn[nH]2)cc1 | – | inconclusive: 6.51 µM [falling, single point] |
| CCOc1ccc(-c2nnc3ccc(SCC(=O)Nc4nc5ccc(C)cc5s4)nn23)cc1 | – | inconclusive: 29.1 µM [falling, single point] |
| O=C(Nc1ncccc1O)c1ccc(Oc2ccccc2)cc1 | inconclusive: 27.8% | – |
| O=C(O)c1cccc(NS(=O)(=O)c2cccc3cccnc23)c1 | – | inconclusive: 0.0046 µM [activator, full curve, poor fit] |
| O=C(Cc1ccccc1)NNC(=S)Nc1ccc(Cl)cc1 | inconclusive: -4.22% | – |
| CC(c1nc2scc(-c3ccccc3)c2c(=O)[nH]1)N1CCN(CC(=O)NC2CC2)CC1 (stereo not drawn) | inconclusive: 9.84% | – |
| Cc1ccc(S(=O)(=O)Nc2nc3ccc(S(C)(=O)=O)cc3s2)cc1 | – | inconclusive: 0.259 µM [falling, full curve, poor fit] |
| O=C(COC(=O)COc1cccc(Br)c1)Nc1c(Cl)cccc1Cl | – | inconclusive: 0.731 µM [activator, full curve] |
| CCN(C(=O)CSc1nnc(COc2cccc(C)c2)o1)c1nc(C)cs1 | – | inconclusive: 6.51 µM [activator, single point] |
| O=C1CCCC2=C1C(c1cn(-c3ccccc3)nc1-c1cccs1)c1c([nH]c(=O)[nH]c1=O)N2 (stereo not drawn) | inconclusive: -1.25% | – |
| O=C(NCCCn1ccnc1)c1cc(S(=O)(=O)N2CCOCC2)ccc1F | inconclusive: -17% | – |
| CCOC(=O)C1CCCN(C(=O)C2CCN(S(=O)(=O)c3ccc4ccccc4c3)CC2)C1 (stereo not drawn) | – | inconclusive: 29.1 µM [falling, single point] |
| CCC1(C(=O)OC)NC(c2ccco2)C2C(=O)N(c3ccc(C)cc3)C(=O)C21 (stereo not drawn) | – | active: 29.1 µM |
| COC(=O)c1ccc(Nc2nc(N3CCOCC3)nc(N3CCOCC3)n2)cc1 | – | inconclusive: 0.58 µM [activator, single point] |
| Cc1cc(NC(=O)/C=C/c2ccccc2Cl)no1 | inconclusive: -8.28% | – |
| COCc1cc(C)nc(N/N=C/c2ccc(-c3cc(C(=O)O)ccc3Cl)o2)c1C#N | inconclusive: -12% | – |
| COc1ccc(NC(=S)NC(=O)c2ccc(Br)o2)cc1 | inconclusive: -3.94% | – |
| CCOc1ccccc1CN1CCN(Cc2ccc3cc(F)ccc3n2)CC1CCO (stereo not drawn) | inconclusive: -28.9% | – |
| O=S(=O)(c1cccc2nsnc12)N1CCc2ccccc21 | inconclusive: 0.476% | – |
| Cc1ccc(NC2CCCN(C(=O)c3cccs3)C2)cc1C (stereo not drawn) | – | inconclusive: 29.1 µM [rising, single point] |
| O=[n+]1cc(-c2ccccc2)n([O-])c2c1CCCCC2 | – | inconclusive: 5.8 µM [activator, partial curve, poor fit] |
| COc1ccc(CS(=O)/C(Cl)=C(/Cl)C(=O)Nc2ccc(OC)nc2)cc1 (stereo not drawn) | inconclusive: -100% | – |
| COc1ccccc1C(=O)Nc1ccc(-c2nnn(CC(=O)N3CCN(C(=O)c4ccco4)CC3)n2)cc1 | inconclusive: 6.74% [at 9.22 µM] | – |
| CC(C)c1ccccc1OCC(=O)Nc1cc(S(=O)(=O)N2CCOCC2)ccc1N1CCCC1 | – | inconclusive: 0.366 µM [activator, full curve, poor fit] |

Filtered by structure: the compounds so far containing a nitro group on carbon (2)

| SMILES | lipid storage change, negative = inhibition | Potency |
| --- | --- | --- |
| Cc1cccc(C(=O)Oc2ccccc2/C=N/Nc2ccc([N+](=O)[O-])cc2)c1 | inconclusive: -10.8% | – |
| O=[N+]([O-])c1cccc(/C=C/c2ccccn2)c1 | inconclusive: 11.2% | – |

(next part)

| SMILES | lipid storage change, negative = inhibition | Potency |
| --- | --- | --- |
| CC(=O)c1c(C)[nH]c(C(=O)OCc2ccccc2)c1C | – | inconclusive: 0.92 µM [activator, full curve] |
| O=C(/C=C/c1ccc(O)cc1)OCc1occc(=O)c1O[C@@H]1OC(CO)[C@@H](O)[C@H](O)[C@@H]1O (stereo partly drawn) | inconclusive: -8.3% | – |
| CCOC(=O)C(C(=O)N(C)Cc1ccccc1)C1CCCCC1 (stereo not drawn) | – | inconclusive: 6.51 µM [falling, single point] |
| CCNc1nc(Oc2ccc(C(=O)OCC)cc2)nc(SC)n1 | inconclusive: -2.4% | – |
| CC(C)CC(COCc1ccc(F)cc1)N1CCN(C(=O)c2cccc(C(F)(F)F)c2)CCC1=O (stereo not drawn) | inconclusive: -0.809% | – |
| O=C(CCN1c2ccccc2Sc2ccccc21)OCC(=O)N1CCN(C(=O)c2ccco2)CC1 | inconclusive: -18.6% | – |
| Cn1c(SCC(=O)NNC(=O)c2ccccc2)nnc1C1CC1 | inconclusive: -58.9% | – |
| COc1ccc(N(C(=O)CNC(=O)c2cccs2)C(C(=O)NC2CCCC2)c2ccncc2)cc1 (stereo not drawn) | inconclusive: 38.2% | – |
| COc1ccc(-c2cc(C(=O)Nc3cc(C)on3)c3ccccc3n2)c(OC)c1 | – | inconclusive: 6.51 µM [activator, single point] |
| Cn1c(N)c(C(=O)COC(=O)C2CC(=O)N(Cc3ccccc3)C2)c(=O)n(C)c1=O (stereo not drawn) | inconclusive: 1.09% | – |
| Cc1ccc(-c2nn(-c3ccc(F)cc3)cc2C(=O)N2CCN(C3CCS(=O)(=O)C3)CC2)cc1 (stereo not drawn) | inconclusive: 9.53% | – |
| COC(=O)c1cc(NC2c3ccccc3C(=O)N2Cc2ccco2)cc(C(=O)OC)c1 (stereo not drawn) | inconclusive: 8.01% | – |
| O=C1CC(c2ccc(F)cc2)SC(N(c2ccccc2)c2ccccc2)=N1 (stereo not drawn) | – | inconclusive: 18.4 µM [falling, single point] |
| Cc1cc(CN2CCCC(C(=O)Nc3ccc(-c4nc5ccccc5[nH]4)cc3)C2)n[nH]1 (stereo not drawn) | inconclusive: 457% | – |
| O=C1Nc2ccccc2O/C1=C\c1ccccc1 | – | inconclusive: 0.206 µM [activator, full curve] |
| CCOc1ccccc1CN1CCNC(=O)C1CC(=O)N(C)Cc1nonc1C (stereo not drawn) | – | inconclusive: 29.1 µM [activator, single point] |
| O=C(Cc1c(Cl)cccc1Cl)N/N=C/c1cccnc1 | inconclusive: 35.1% | – |
| CCOC(=O)N1CCN(C(=S)Nc2ccc3nc(N4CCN(CC)CC4)cc(C)c3c2)CC1 | inconclusive: 2.5% | – |
| Cc1cccc(-c2nn(-c3ccccc3)cc2C(=O)N2CCN(C3CCS(=O)(=O)C3)CC2)c1 (stereo not drawn) | – | inconclusive: 0.461 µM [falling, full curve] |
| CC(C)(C)NS(=O)(=O)c1ccc(CCC(=O)NCc2ccccn2)cc1 | – | inconclusive: 0.651 µM [activator, partial curve, poor fit] |
| COc1ccccc1N=C1SCC(=O)N1c1ccccc1OC | inconclusive: 3.14% | – |
| Cc1c(NC(=O)CSC(=S)N2CCCC2)c(=O)n(-c2ccccc2)n1C | inconclusive | – |
| COCc1cc(C)nc(SCc2ccccc2Cl)c1C#N | inconclusive: 111% | – |

An excerpt from above in order of molecular weight, rising:

| SMILES | lipid storage change, negative = inhibition | Potency |
| --- | --- | --- |
| O=C(Cc1c(Cl)cccc1Cl)N/N=C/c1cccnc1 | inconclusive: 35.1% | – |
| COC(=O)c1cc(NC2c3ccccc3C(=O)N2Cc2ccco2)cc(C(=O)OC)c1 (stereo not drawn) | inconclusive: 8.01% | – |
| CC(C)c1ccccc1OCC(=O)Nc1cc(S(=O)(=O)N2CCOCC2)ccc1N1CCCC1 | – | inconclusive: 0.366 µM [activator, full curve, poor fit] |
